Laboratory results: US20050069918A1
Results are given in words; binding and its absence hold for the method and conditions named. Binding seen in cells or lysates may run through a third protein. Some binding calls cover weakened binding; strength is not graded here.

Chains of the proteins cited; added tags and fusions are not shown. Lines headed by an entry give the natural chain unless they say otherwise; changes in a name come on top. Residues count along the entry.
UniProt P05412, residues 1-79: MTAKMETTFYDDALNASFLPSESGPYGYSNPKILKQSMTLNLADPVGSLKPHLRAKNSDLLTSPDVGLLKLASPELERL
UniProt Q92905: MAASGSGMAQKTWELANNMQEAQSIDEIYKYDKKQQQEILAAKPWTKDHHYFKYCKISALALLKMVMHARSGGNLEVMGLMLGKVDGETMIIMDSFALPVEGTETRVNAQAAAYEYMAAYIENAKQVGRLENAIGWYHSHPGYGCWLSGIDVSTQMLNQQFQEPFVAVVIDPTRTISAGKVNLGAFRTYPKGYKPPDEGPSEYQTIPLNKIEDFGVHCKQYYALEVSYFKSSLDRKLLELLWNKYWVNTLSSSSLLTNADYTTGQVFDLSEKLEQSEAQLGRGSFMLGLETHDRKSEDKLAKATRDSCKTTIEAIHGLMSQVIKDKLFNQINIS

Tests used:
[1] = molecular target: GST-p27 fusion protein [GST: P08515]; assay: GST pull-down, 35S-labelled JAB1 on immobilized GST-p27
[2] = molecular target: GST-c-Jun (1-79 amino acids) fusion protein (UniProt P05412); assay: GST pull-down, 35S-labelled JAB1 on immobilized GST-c-Jun (1-79)
[3] = molecular target: GST-p27 fusion protein [GST: P08515]; assay: GST pull-down, 35S-labelled JAB1 on immobilized GST-p27 (figure legend)
[4] = molecular target: GST-c-Jun (1-79 amino acids) fusion protein (UniProt P05412); assay: GST pull-down, 35S-labelled JAB1 on immobilized GST-c-Jun (1-79) (figure legend)

Measured: binding

JAB1 full length (FL), in vitro translated and [35S]-methionine labelled (from UniProt Q92905 2-334)
binds: all assays above
